Reference: paper PMC10945694

Target: RRM1 domain of SRSF1 (SRSF1-truncated protein)
Assay: co-IP; FLAG-SRSF1 or truncated SRSF1 together with HA-tagged SART1, RBM15 or SRSF10 in 293T cells; lysate, protein A agarose, western blotting

binding: binds
B1: HA-RBM15 (protein, UniProt Q0VBL3 1-962)
chain: MRSAGREPLPRRSPRWRRASPLCETSAGWRVSQLRRDDLRRPSTMKGKERSPVKPKRSRGGEDSSSRGERSKKLGGSGGSNGSSSGKTDSGGSRRSLHLDKSSSRGGSREYETGGGSSSSRLHSYSSPSTKNSSGGGESRSSSRGGGGESRSSGAASSAPGGGDGVEYKTLKISELGSQLSDEAVEDGLFHEFKRFGDVSVKISHLSGSGSGDERVAFVNFRRPEDARAAKHARGRLVLYDRPLKIEAVYVSRRRSRSPLDKDAYAPSSSVVGTSVGSHRHAPGGGGGQRSLSPGGAALGYRDYRLQQLALGRLPPPPPPPLPRELERERDYPFYDRVRPAYSLEPRVGAGAGAAPFREVDEISPEDDQRANRTLFLGNLDITVTENDLRRAFDRFGVITEVDIKRPSRGQTSTYGFLKFENLDMSHRAKLAMSGKIIIRNPIKIGYGKATPTTRLWVGGLGPWVPLAALAREFDRFGTIRTIDYRKGDSWAYIQYESLDAAHAAWTHMRGFPLGGPDRRLRVDFADTEHRYQQQYLQPLPLTHYELVTDTFGHRAPDPLRSARDRTPPLLYRDRDRDLYTDSDWVPPPPPVRERSARAATSAVTAYEPLDSLDRRRDGWSLDRDRGDRDLPSSRDQPRKRRLPEESGGRHLDRSPESERPRKQRHCTPSPDRSPELSSNRDRYNSDNDRSSRLLLLERSSPVRDRRGSLEKSQSDKRDRKNSASAERDRKHRTAAPTEGKNPLKKEDRSDGNAPSASTSSSKQKPPSQKQDGGTAPVAASSPKLCLAWQGMLLLKNSNFPSNMHLLQGDLQVASSLLVEGSTGGKVAQLKITQRLRLDQPKLDEVTRRIKVAGPNGYAILLAVPGSSDSRSSSSSATSDTAASTQRPLRNLVSYLKQKQAAGVISLPVGGNKDKENTGVLHAFPPCEFSQQFLDSPAKALAKSEEDYLVMIIVRAKLVNSG

binding: binds
B2: HA-SART1 (protein, UniProt Q9Z315 1-806)
chain: MGSSKKHRGEKEAAGTTAAAGTGGTTEQPPRHREHKKHKHRSSGGGSSGGERRKRSRERGSERGSGRRGAEAEARSGAHGRERSQAEPSERRVKREKRDDGYEAAASSKASSGDASSLSIEETNKLRAKLGLKPLEVNAVKKEAGTKEEPVAADVINPMALRQREELREKLAAAKEKRLLNQKLGKIKTLGEDDPWLDDTAAWIERSRQLQKEKDLAEKRAKLLEEMDQEFGVSTLVEEEFEQRRQDLYSARDLQGLTVEHAIDSFREGETVVLTLKDKGVLQDGEDVLVNVNMVDKERADKNVELRKKKPDYLPYAEDESVDDLAQQKPRSILAKYDEELEGERPHSFRLEQGGMADGLRERELEEIRTKLRLQAQSLSSVGPRLASEYLSPEEMVTFKKTKRRVKKIRKKEKEVIMRADDLLPLGDQTQDGDFGSRLRGRGRRRVPEVEEEALEDEEKDPVAQPPPSDDTRVENMDISDEEDGGALPPGSPEGLEEDEAELELQKQLEKGRRLRQLQQLQQLRDSGEKVLEIVKKLESRQRGWEEEEDPERKGTIVFNATSEFCRTLGEIPTYGLAGNREEQEELMDFERDEERSANGGSESDGEENIGWSTVNLDEEKQHQDFSASSTTILDEEPIVNRGLAAALLLCQNKGLLETTVQKVARVKAPNKSLPSAVYCIEDKMAIDDKYSRREEYRGFTQDFKEKDGYKPDVKIEYVDETGRKLTPKEAFRQLSHRFHGKGSGKMKTERRMKKLDEEALLKKMSSSDTPLGTVALLQEKQKAQKTPYIVLSGSGKSMNANTITK

These are yes or no findings as the source states them, for the method shown. Binding seen in cells or lysates may run through a third protein. Binding can be weak; no strength is given. Tags and fused reporters may be left off the sequences shown. Each block holds one binder with its values, some of them ahead of it.
